# Experimental data published in the supplement of paper PMC8728848.
# The list shows a part of the results.
# B1: SspB (Streptococcus gordonii), P16952 (protein)
# chain: MKNKKEVYGFRKSKVAKTLCGAVLGTALIAFADKAVFADEVTETTSTSTVEVATTGNPATNLPEAQGEMSQVAKESQAKAGSKESALPVEVSSADLDKAVADAKSAGVKVVQDETKDKGTATTATDNAQKQDEIKSDYAKQAEEIKTTTEAYKKEVAAHQAETDKINAENKAADDKYQKDLKSHQEEVEKINTANATAKAEYEAKLAQYQKDLATVKKANEDSQQDYQNKLSAYQTELARVQKANAEAKEAYEKAVKENTAKNEALKVENEAIKQRNETAKATYEAAMKQYEADLAAIKKANEDNDADYQAKLAAYQTELARVQKANAEAKEAYDKAVKENTAKNTAIQAENEAIKQRNETAKATYDAAVKKYEADLAAVKQANATNEADYQAKLAAYQTELARVQKANADAKATYEKAVEDNKAKNAAIKAENEEIKQRNAVAKTDYEAKLAKYEADLAKYKKEFAAYTAALAEAESKKKQDGYLSEPRSQSLNFKSEPNAIRTIDSSVHQYGQQELDALVKSWGISPTNPDRKKSRAYSYFNAINSNNTYAKLVLEKDKPVDVTYTGLKNSSFNGKKISKVVYTYTLKETGFNDGTKMTMFASSDPTVTAWYNDYFTSTNINVKVKFYDEEGQLMNLTGGLVNFSSLNRGNGSGAIDKDAIESVRNFNGRYIPISGSSIKIHENNSAYADSSNAEKSLGARWNTSEWDTTSSPNNWYGAIVGEITQSEISFNMASSKSGNIWFAFNSNINAIGVPTKPVAPTAPTQPMYETEKPLEPAPVAPSYENEPTPPVKTPDQPEPSKPEEPTYETEKPLEPAPVAPSYENEPTPPVKTPDQPEPSKPEEPNYETEKPLEPAPVAPSYENEPTPPVKIPDQPEPSKPEEPTYDPLPTPPLAPTPKQLPTPPVVPTVHFHYSSLLAQPQINKEIKNEDGVDIDRTLVAKQSIVKFELKTEALTAGRPKTTSFVLVDPLPTGYKFDLDATKAASTGFDTTYDEASHTVTFKATDETLATYNADLTKPVETLHPTVVGRVLNDGATYTNNFTLTVNDAYGIKSNVVRVTTPGKPNDPDNPNNNYIKPTKVNKNKEGLNIDGKEVLAGSTNYYELTWDLDQYKGDKSSKEAIQNGFYYVDDYPEEALDVRPDLVKVADEKGNQVSGVSVQQYDSLEAAPKKVQDLLKKANITVKGAFQLFSADNPEEFYKQYVATGTSLVITDPMTVKSEFGKTGGKYENKAYQIDFGNGYATEVVVNNVPKITPKKDVTVSLDPTSENLDGQTVQLYQTFNYRLIGGLIPQNHSEELEDYSFVDDYDQAGDQYTGNYKTFSSLNLTMKDGSVIKAGTDLTSQTTAETDATNGIVTVRFKEDFLQKISLDSPFQAETYLQMRRIAIGTFENTYVNTVNKVAYASNTVRTTTPIPRTPDKPTPIPTPKPKDPDKPETPKEPKVPSPKVEDPSAPIPVSVGKELTTLPKTGTNDATYMPYLGLAALVGFLGLGLAKRKED
# Columns and labels:
# Experiment in all cases: glycan array binding signal (z-score within array); higher = stronger binding
# Conditions in all cases: glycan notation: IUPAC condensed, linker removed
# Fuc(a1-2)[Gal(a1-3)]Gal = target: Fuc(a1-2)[Gal(a1-3)]Gal
# How it was run: (§1)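 Negative Z-scores can be read as non-binding. The Z-score is calculated within each array and then averaged across arrays of one protein sequence at different concentrations or buffers and across linkers. Arrays, 3228 in all, were curated from the Consortium for Functional Glycomics database and kept only where the protein sequence was available.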
# [1] = target: Fuc(a1-2)[Gal(a1-3)]Gal(b1-3)GlcNAc
# How it was run: as §1
# [2] = target: Fuc(a1-2)[Gal(a1-3)]Gal(b1-3)GlcNAc(b1-2)Man(a1-3)[Fuc(a1-2)[Gal(a1-3)]Gal(b1-3)GlcNAc(b1-2)Man(a1-6)]Man(b1-4)GlcNAc(b1-4)GlcNAc
# How it was run: as §1
# [3] = target: Fuc(a1-2)[Gal(a1-3)]Gal(b1-4)Glc
# How it was run: as §1
# [4] = target: Fuc(a1-2)[Gal(a1-3)]Gal(b1-4)GlcNAc
# How it was run: as §1
# [5] = target: Fuc(a1-2)[Gal(a1-3)]Gal(b1-4)GlcNAc(b1-2)Man(a1-3)[Fuc(a1-2)[Gal(a1-3)]Gal(b1-4)GlcNAc(b1-2)Man(a1-6)]Man(b1-4)GlcNAc(b1-4)GlcNAc
# How it was run: as §1
# [6] = target: Fuc(a1-2)[Gal(a1-3)]Gal(b1-4)[Fuc(a1-3)]GlcNAc
# How it was run: as §1
# [7] = target: Fuc(a1-2)[Gal(a1-4)]Gal(b1-4)GlcNAc
# How it was run: as §1
# [8] = target: Fuc(a1-2)[GalNAc(a1-3)]Gal
# How it was run: as §1
# [9] = target: Fuc(a1-2)[GalNAc(a1-3)]Gal(b1-3)GalNAc(a1-3)[Fuc(a1-2)]Gal(b1-4)GlcNAc
# How it was run: as §1
# [10] = target: Fuc(a1-2)[GalNAc(a1-3)]Gal(b1-3)GlcNAc
# How it was run: as §1
# [11] = target: Fuc(a1-2)[GalNAc(a1-3)]Gal(b1-3)GlcNAc(b1-2)Man(a1-3)[Fuc(a1-2)[GalNAc(a1-3)]Gal(b1-3)GlcNAc(b1-2)Man(a1-6)]Man(b1-4)GlcNAc(b1-4)GlcNAc
# How it was run: as §1
# [12] = target: Fuc(a1-2)[GalNAc(a1-3)]Gal(b1-4)Glc
# How it was run: as §1
# [13] = target: Fuc(a1-2)[GalNAc(a1-3)]Gal(b1-4)GlcNAc
# How it was run: as §1
# [14] = target: Fuc(a1-2)[GalNAc(a1-3)]Gal(b1-4)GlcNAc(b1-2)Man(a1-3)[Fuc(a1-2)[GalNAc(a1-3)]Gal(b1-4)GlcNAc(b1-2)Man(a1-6)]Man(b1-4)GlcNAc(b1-4)GlcNAc
# How it was run: as §1
# [15] = target: Fuc(a1-2)[GalNAc(a1-3)]Gal(b1-4)GlcNAc(b1-3)Gal(b1-4)GlcNAc
# How it was run: as §1
# [16] = target: Fuc(a1-2)[GalNAc(a1-3)]Gal(b1-4)GlcNAc(b1-3)Gal(b1-4)GlcNAc(b1-3)Gal(b1-4)GlcNAc
# How it was run: as §1
# [17] = target: Fuc(a1-2)[GalNAc(a1-3)]Gal(b1-4)[Fuc(a1-3)]GlcNAc
# How it was run: as §1
# [18] = target: Fuc(a1-2)[GalNAc(a1-4)]Gal(b1-4)GlcNAc
# How it was run: as §1
# [19] = target: Fuc(a1-2)[GalNAc(b1-3)]Gal
# How it was run: as §1
# Fuc(a1-3)GlcNAc = target: Fuc(a1-3)GlcNAc
# How it was run: as §1
# [20] = target: Fuc(a1-3)[Gal(b1-4)]Glc6S
# How it was run: as §1
# [21] = target: Fuc(a1-3)[Gal(b1-4)]GlcNAc
# How it was run: as §1
# [22] = target: Fuc(a1-3)[Gal(b1-4)]GlcNAc(b1-2)Man(a1-3)[Fuc(a1-3)[Gal(b1-4)]GlcNAc(b1-2)Man(a1-6)]Man(b1-4)GlcNAc(b1-4)GlcNAc
# How it was run: as §1
# [23] = target: Fuc(a1-3)[Gal(b1-4)]GlcNAc(b1-3)Gal(b1-3)[Fuc(a1-4)]GlcNAc
# How it was run: as §1
# [24] = target: Fuc(a1-3)[Gal(b1-4)]GlcNAc(b1-3)GalNAc
# How it was run: as §1
# [25] = target: Fuc(a1-3)[Gal(b1-4)]GlcNAc(b1-4)Gal(b1-4)[Fuc(a1-3)]GlcNAc
# How it was run: as §1
# [26] = target: Fuc(a1-3)[Gal(b1-4)]GlcNAc(b1-4)Gal(b1-4)[Fuc(a1-3)]GlcNAc(b1-4)Gal(b1-4)[Fuc(a1-3)]GlcNAc
# How it was run: as §1
# [27] = target: Fuc(a1-3)[Gal(b1-4)]GlcNAc(b1-6)[Gal(b1-3)GlcNAc(b1-3)]Gal(b1-4)Glc
# How it was run: as §1
# [28] = target: Fuc(a1-3)[Gal(b1-4)]GlcNAc6S
# How it was run: as §1
binder,measurement,setting,value
B1,glycan array binding signal (z-score),Fuc(a1-2)[Gal(a1-3)]Gal,-0.179
same,glycan array binding signal (z-score),[1],0.381
same,glycan array binding signal (z-score),[2],0.227
same,glycan array binding signal (z-score),[3],0.486
same,glycan array binding signal (z-score),[4],0.017
same,glycan array binding signal (z-score),[5],2.31
same,glycan array binding signal (z-score),[6],-0.352
same,glycan array binding signal (z-score),[7],1.02
same,glycan array binding signal (z-score),[8],0.857
same,glycan array binding signal (z-score),[9],-0.697
same,glycan array binding signal (z-score),[10],-1.06
same,glycan array binding signal (z-score),[11],-0.556
same,glycan array binding signal (z-score),[12],-1.27
same,glycan array binding signal (z-score),[13],-0.127
same,glycan array binding signal (z-score),[14],1.04
same,glycan array binding signal (z-score),[15],0.001
same,glycan array binding signal (z-score),[16],1.31
same,glycan array binding signal (z-score),[17],0.08
same,glycan array binding signal (z-score),[18],-0.891
same,glycan array binding signal (z-score),[19],0.761
same,glycan array binding signal (z-score),Fuc(a1-3)GlcNAc,0.435
same,glycan array binding signal (z-score),[20],1.58
same,glycan array binding signal (z-score),[21],-0.041
same,glycan array binding signal (z-score),[22],1.67
same,glycan array binding signal (z-score),[23],-0.232
same,glycan array binding signal (z-score),[24],0.466
same,glycan array binding signal (z-score),[25],0.662
same,glycan array binding signal (z-score),[26],-0.63
same,glycan array binding signal (z-score),[27],-0.41
same,glycan array binding signal (z-score),[28],0.604

# Reformatted as tab-separated lines: part of the list above.
binder	measurement	setting	value
B1	glycan array binding signal (z-score)	[11]	-0.556
same	glycan array binding signal (z-score)	[13]	-0.127
